Reference: the supplement of paper PMC10849652
The list shows a part of the results.

By UniProt entry, the sequences of proteins in these tests, tags left out. Where a name states a change or a piece, a line headed by the entry shows the natural chain unless it says otherwise.
UniProt Q12851: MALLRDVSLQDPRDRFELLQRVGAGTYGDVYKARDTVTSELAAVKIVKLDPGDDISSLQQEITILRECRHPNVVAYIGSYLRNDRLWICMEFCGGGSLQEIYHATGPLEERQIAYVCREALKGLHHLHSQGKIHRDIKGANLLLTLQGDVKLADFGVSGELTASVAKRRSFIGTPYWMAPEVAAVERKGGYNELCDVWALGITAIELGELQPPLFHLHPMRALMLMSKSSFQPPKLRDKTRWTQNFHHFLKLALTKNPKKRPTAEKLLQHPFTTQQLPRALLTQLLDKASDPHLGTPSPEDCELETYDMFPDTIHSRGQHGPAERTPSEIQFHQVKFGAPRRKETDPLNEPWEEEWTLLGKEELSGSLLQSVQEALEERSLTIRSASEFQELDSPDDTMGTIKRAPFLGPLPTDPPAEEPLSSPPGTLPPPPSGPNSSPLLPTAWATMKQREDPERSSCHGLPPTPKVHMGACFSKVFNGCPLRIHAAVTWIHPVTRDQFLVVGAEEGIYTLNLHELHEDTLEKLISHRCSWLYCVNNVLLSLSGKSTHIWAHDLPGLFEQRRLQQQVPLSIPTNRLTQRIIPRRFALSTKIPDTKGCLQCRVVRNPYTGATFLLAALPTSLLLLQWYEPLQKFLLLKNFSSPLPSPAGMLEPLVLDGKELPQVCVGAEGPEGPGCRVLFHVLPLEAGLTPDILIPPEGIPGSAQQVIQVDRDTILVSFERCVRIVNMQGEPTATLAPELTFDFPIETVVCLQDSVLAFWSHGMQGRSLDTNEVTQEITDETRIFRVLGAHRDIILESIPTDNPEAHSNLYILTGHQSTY
UniProt Q9UI95, whole entry, looked up: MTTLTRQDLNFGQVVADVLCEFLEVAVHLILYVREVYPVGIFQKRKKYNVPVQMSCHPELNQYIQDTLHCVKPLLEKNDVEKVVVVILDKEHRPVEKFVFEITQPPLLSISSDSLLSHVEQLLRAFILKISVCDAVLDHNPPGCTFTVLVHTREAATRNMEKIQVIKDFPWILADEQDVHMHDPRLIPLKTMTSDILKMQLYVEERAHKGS
UniProt Q7L1W4: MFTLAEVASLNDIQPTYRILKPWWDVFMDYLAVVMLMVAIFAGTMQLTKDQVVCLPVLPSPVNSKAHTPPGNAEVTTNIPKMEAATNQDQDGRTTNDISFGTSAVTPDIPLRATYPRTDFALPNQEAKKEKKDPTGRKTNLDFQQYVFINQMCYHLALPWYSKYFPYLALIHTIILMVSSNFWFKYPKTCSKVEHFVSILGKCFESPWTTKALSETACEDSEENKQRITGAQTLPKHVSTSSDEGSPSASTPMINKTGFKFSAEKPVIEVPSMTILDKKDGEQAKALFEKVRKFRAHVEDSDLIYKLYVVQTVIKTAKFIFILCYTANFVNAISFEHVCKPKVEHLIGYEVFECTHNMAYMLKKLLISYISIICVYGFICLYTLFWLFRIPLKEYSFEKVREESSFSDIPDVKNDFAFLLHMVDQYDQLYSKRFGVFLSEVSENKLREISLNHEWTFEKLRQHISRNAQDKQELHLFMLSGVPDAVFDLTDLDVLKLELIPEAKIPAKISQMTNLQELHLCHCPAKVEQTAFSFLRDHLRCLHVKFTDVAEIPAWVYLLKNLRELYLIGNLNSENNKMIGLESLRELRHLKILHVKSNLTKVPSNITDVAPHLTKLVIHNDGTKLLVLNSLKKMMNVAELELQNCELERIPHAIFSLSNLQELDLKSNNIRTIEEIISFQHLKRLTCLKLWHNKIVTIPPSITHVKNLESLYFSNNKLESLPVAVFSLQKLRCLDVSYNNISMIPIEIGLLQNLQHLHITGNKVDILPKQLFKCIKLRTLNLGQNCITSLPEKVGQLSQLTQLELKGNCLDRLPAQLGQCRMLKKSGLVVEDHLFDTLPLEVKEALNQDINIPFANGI
UniProt Q15013: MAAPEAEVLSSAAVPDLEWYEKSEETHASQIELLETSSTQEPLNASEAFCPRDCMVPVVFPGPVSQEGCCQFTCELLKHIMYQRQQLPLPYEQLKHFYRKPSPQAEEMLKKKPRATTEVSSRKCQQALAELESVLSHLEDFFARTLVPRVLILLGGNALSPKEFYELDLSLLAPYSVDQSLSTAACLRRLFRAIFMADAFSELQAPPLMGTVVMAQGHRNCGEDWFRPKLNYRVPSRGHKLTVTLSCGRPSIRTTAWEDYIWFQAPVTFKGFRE
UniProt Q32MZ4: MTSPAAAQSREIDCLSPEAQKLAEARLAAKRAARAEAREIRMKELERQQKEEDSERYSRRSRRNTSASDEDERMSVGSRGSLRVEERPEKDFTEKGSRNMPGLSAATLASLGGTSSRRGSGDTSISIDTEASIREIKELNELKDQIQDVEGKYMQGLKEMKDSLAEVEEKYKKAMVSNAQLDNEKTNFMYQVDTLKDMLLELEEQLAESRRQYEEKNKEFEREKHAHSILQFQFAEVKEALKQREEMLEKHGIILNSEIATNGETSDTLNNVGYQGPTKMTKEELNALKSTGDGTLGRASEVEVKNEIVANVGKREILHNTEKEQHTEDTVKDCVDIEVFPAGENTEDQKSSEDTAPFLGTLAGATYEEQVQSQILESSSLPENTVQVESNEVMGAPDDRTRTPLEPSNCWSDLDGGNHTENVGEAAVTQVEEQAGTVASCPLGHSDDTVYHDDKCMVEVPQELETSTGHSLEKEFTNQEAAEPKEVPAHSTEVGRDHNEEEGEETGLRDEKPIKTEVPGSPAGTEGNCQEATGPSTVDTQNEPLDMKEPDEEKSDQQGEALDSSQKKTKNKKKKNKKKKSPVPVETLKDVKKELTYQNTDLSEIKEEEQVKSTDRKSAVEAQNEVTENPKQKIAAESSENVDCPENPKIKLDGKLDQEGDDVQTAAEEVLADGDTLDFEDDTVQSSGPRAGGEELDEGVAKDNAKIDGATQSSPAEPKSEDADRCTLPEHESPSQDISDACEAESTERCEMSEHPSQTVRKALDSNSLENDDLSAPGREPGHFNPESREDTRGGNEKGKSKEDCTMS
UniProt Q9H063: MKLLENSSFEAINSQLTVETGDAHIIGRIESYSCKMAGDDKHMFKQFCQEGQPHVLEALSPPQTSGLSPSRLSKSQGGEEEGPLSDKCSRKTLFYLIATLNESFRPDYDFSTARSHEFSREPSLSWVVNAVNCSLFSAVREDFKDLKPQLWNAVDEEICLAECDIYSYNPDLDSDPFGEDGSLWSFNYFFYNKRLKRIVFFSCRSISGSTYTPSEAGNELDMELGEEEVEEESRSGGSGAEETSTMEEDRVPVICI
UniProt Q02779: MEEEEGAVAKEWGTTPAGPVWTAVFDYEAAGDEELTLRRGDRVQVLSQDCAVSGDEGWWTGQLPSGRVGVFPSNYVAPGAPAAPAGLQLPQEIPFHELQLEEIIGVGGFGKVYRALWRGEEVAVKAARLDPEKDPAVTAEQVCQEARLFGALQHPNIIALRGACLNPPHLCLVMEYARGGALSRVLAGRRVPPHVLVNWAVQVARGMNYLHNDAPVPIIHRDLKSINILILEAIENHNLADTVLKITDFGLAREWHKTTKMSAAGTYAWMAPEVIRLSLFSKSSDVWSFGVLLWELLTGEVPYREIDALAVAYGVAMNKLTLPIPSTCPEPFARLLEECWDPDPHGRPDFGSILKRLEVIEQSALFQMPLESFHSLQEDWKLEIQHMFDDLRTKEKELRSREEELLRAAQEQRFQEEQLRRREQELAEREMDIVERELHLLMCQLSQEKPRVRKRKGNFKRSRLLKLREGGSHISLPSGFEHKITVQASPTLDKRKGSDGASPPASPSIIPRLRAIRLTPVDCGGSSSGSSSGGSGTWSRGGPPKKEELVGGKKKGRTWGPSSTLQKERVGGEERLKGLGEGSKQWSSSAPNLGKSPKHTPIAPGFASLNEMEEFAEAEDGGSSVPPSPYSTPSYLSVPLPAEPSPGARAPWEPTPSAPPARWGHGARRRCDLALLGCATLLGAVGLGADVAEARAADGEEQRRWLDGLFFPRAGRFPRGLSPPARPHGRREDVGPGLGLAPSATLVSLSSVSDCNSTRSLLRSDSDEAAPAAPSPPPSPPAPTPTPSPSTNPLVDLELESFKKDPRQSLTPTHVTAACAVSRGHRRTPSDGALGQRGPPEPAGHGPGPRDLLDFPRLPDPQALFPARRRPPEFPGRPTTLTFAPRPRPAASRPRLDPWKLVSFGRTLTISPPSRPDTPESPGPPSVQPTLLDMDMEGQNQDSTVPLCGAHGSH
UniProt Q86X29: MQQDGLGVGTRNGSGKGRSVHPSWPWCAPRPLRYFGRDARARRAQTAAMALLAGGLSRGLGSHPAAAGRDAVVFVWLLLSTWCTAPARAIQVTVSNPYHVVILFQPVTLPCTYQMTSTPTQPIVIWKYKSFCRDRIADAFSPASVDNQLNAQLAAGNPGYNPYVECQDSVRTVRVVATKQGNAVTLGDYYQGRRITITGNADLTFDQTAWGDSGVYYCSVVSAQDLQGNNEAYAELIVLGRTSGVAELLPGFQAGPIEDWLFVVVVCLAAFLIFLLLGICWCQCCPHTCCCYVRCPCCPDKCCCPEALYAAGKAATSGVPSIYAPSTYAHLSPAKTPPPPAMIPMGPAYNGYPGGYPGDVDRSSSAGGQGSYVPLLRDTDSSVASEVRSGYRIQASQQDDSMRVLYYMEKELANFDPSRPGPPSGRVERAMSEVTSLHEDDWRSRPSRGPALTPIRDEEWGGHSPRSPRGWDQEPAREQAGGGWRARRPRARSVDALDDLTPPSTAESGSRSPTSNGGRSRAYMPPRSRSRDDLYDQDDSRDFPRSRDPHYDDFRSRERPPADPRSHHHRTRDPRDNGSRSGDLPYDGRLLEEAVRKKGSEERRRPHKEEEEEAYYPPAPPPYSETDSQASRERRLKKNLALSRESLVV
UniProt Q96LZ2: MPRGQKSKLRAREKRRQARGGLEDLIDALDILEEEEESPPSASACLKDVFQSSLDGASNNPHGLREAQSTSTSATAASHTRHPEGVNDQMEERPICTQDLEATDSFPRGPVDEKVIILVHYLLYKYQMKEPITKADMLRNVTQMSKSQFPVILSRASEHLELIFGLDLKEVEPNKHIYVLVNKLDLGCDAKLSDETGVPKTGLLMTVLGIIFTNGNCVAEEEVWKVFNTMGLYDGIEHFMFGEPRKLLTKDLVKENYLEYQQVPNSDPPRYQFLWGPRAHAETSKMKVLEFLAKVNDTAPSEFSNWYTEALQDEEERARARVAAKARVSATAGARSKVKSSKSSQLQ

Tests used:
Assay in all cases: log2 fold change, soluble protein after heating vs DMSO (PISA); higher = thermal stabilisation; K562 cells, 10 uM, 30 min; active = over 0.2 and 3.5 SD of the protein, either way, in both replicates (recomputed)
[1] = compound: COC1=CC=C(C=C1)CN2C=CC3=C2C=C(C=C3)C(=O)NO
Summary of the method: (§1)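 K562 cells (2×10^6 cells/mL) were treated with 10 μM compound for 30 min, and aliquots were heated for 3 min over 48°C-58°C. Pooled aliquots were extracted in PBS with 0.5% NP-40 at 4°C, and the supernatant after 21,000xg for 90 min was measured by TMTpro 16plex LC-MS/MS with channel sums equalised. Reported thermal stability, relative to control samples and from duplicates, is a log2 fold change.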

[2] = compound: CON(C)C(=O)N1N=C(c2cc(F)ccc2F)S[C@@]1(CCCN)c1ccccc1 [filanesib]
Summary of the method: as §1

[3] = compound: CO[C@H]1C[C@@H]2CC[C@@H](C)[C@@](O)(O2)C(=O)C(=O)N2CCCC[C@H]2C(=O)O[C@H]([C@H](C)C[C@@H]2CC[C@H](n3cnnn3)[C@H](OC)C2)CC(=O)[C@H](C)/C=C(\C)[C@@H](O)[C@@H](OC)C(=O)[C@H](C)C[C@H](C)/C=C/C=C/C=C/1C [zotarolimus]
Summary of the method: as §1

[4] = compound: COc1cc2nc(-c3cc(F)ccc3O)nc(N[C@@H]3CNC[C@H]3C(C)(C)O)c2cc1OC
Summary of the method: as §1

[5] = compound: COc1cc2ncnc(Nc3ccc(F)c(Cl)c3)c2cc1OCCCN1CCOCC1 [gefitinib]
Summary of the method: as §1

[6] = compound: CS(=O)(=O)CCNCc1ccc(-c2ccc3ncnc(Nc4ccc(OCc5cccc(F)c5)c(Cl)c4)c3c2)o1 [lapatinib]
Summary of the method: as §1

[7] = compound: CS(=O)(=O)c1ccc(-c2cnc(N)c(C(=O)Nc3ccccc3)n2)cc1
Summary of the method: as §1

[8] = compound: C[C@H](C1=CC=C(C=C1)C(=O)NC2=C3C=CNC3=NC=C2)N
Summary of the method: as §1

[9] = compound: Cc1ccc(-n2nc(C(C)(C)C)cc2NC(=O)Nc2ccc(OCCN3CCOCC3)c3ccccc23)cc1 [doramapimod]
Summary of the method: as §1

[10] = compound: COc1cc(C(=O)O)ccc1NC(=O)[C@@H]1N[C@@H](CC(C)(C)C)[C@](C#N)(c2ccc(Cl)cc2F)[C@H]1c1cccc(Cl)c1F [idasanutlin]
Summary of the method: as §1

[11] = compound: CS(=O)(=O)N1CCN(Cc2cc3nc(-c4cccc5[nH]ncc45)nc(N4CCOCC4)c3s2)CC1 [pictilisib]
Summary of the method: as §1

[12] = compound: C[C@@H](Oc1cc(-c2cnn(C3CCNCC3)c2)cnc1N)c1c(Cl)ccc(F)c1Cl [crizotinib]
Summary of the method: as §1

[13] = compound: C[C@@H]1COCCN1C2=NC(=NC(=C2)C3(CC3)S(=O)(=O)C)C4=C5C=CNC5=CC=C4
Summary of the method: as §1

[14] = compound: C[C@H](Nc1ncnc2nc[nH]c12)c1cc2cccc(Cl)c2c(=O)n1-c1ccccc1 [duvelisib]
Summary of the method: as §1

[15] = compound: Cc1cc(Nc2cc(CN3CCOCC3)c3nc(C)c(Cc4ccc(Cl)cc4F)n3n2)n[nH]1 [gandotinib]
Summary of the method: as §1

[16] = compound: Cc1cc(SCc2sc(-c3ccc(C(F)(F)F)cc3)nc2C)ccc1OCC(=O)O
Summary of the method: as §1

[17] = compound: COc1cc(Nc2ncc3c(n2)-c2ccc(Cl)cc2C(c2c(F)cccc2OC)=NC3)ccc1C(=O)O [alisertib]
Summary of the method: as §1

[18] = compound: COc1cccc2cc(-c3nc([C@H]4CC[C@H](C(=O)O)CC4)n4ncnc(N)c34)[nH]c12
Summary of the method: as §1

[19] = compound: Cc1cc(Nc2cc(N3CCN(C)CC3)nc(Sc3ccc(NC(=O)C4CC4)cc3)n2)n[nH]1 [tozasertib]
Summary of the method: as §1

[20] = compound: Cc1ccc(C(=O)N(CCCN)[C@@H](c2nc3cc(Cl)ccc3c(=O)n2Cc2ccccc2)C(C)C)cc1 [ispinesib]
Summary of the method: as §1

Measured: log2 fold change

MAP4K2 (UniProt Q12851)
inactive: [1] 0.02 | [2] -0.143 | [3] -0.083 | [4] 0.426 | [5] 0.034 | [6] -0.011 | [7] -0.032 | [8] -0.129 | [9] -0.091

MAD2L2 (UniProt Q9UI95)
inactive: [1] 0.067 | [2] 0.114 | [3] 0.233 | [10] -0.12 | [11] 0.117 | [7] -0.053 | [12] -0.032 | [13] 0.283 | [8] 0.08 | [14] 0.209 | [15] -0.153 | [16] -0.034 | [9] -0.062

LRRC8D (UniProt Q7L1W4)
inactive: [1] -0.115 | [2] 0.13 | [3] 0.083 | [10] 0.169 | [17] -0.066 | [4] -0.105 | [5] -0.032 | [18] -0.056 | [6] 0.128 | [7] 0.124 | [12] -0.069 | [13] -0.308 | [8] 0.265 | [14] -0.105 | [19] -0.281 | [16] 0.203 | [9] 0.044 | [20] -0.212

MAP3K20 isoform 2 (UniProt Q9NYL2)
inactive: [1] 0.044 | [2] 0.068 | [10] 0.407 | [4] 0.036 | [5] -0.003 | [18] -0.242 | [6] -0.121 | [7] 0.038 | [12] -0.182 | [13] 0.082 | [9] 0.096

MAD2L1BP isoform 3 (UniProt Q15013)
inactive: [1] 0.029 | [2] 0.003 | [3] 0.029 | [10] 0.023 | [17] 0.003 | [4] 0.005 | [5] 0.012 | [18] 0.052 | [6] 0.024 | [7] 0.013 | [12] -0.027 | [13] 0.076 | [8] -0.072 | [14] -0.026 | [19] -0.062 | [16] 0.061 | [9] -0.011 | [20] 0.063

LRRFIP1 isoform 4 (UniProt Q32MZ4)
inactive: [1] -0.061 | [3] 0.202 | [10] 0.108 | [11] -0.046 | [12] 0.012 | [13] 0.175 | [8] 0.59 | [15] 0.548 | [16] -0.025 | [9] -0.016

LSM14A, A0A140TA76
inactive: [10] -0.034 | [17] 0.083 | [18] -0.141 | [19] -0.008

MAF1 (UniProt Q9H063)
inactive: [20] -0.043

MAP3K10 (UniProt Q02779)
inactive: [2] 0.146 | [10] -0.145 | [4] 0.277 | [6] 0.06 | [11] 0.245 | [7] 0.155 | [15] -0.057 | [19] -0.028

LSR isoform 3 (UniProt Q86X29)
inactive: [2] 0.188 | [3] 0.115 | [17] -0.011 | [4] 0.041 | [18] 0.033 | [6] 0.073 | [7] 0.052 | [8] -0.138 | [16] -0.118

MAGEB10 (UniProt Q96LZ2)
inactive: [3] 0.023 | [10] 0.184 | [5] 0.139 | [8] 0.307 | [14] -0.33 | [19] -0.049 | [16] 0.093
